# Source: PubChem BioAssay AID284 (DTP/NCI, 2004)
# The list shows only some results of the screen, not a fair sample: it is rich in T/C values a quarter to a half above the control, in often repeated tests (any T/C) and in doses without a T/C. Further doses and runs are listed elsewhere. T/C gives the treated animals as a percentage of the vehicle group. Some doses have a count of surviving animals in place of a T/C: the source holds a T/C of zero for them, seemingly a mark for toxic or unscored doses. Some doses without a T/C left all or most animals alive at the check, yet need not have been tolerated: the source hardly ever lists a survival T/C far under the control, and the zero likely stands for such cases as well. Survivors were counted at the toxicity check, usually on the fifth day, unless a day is given; later deaths do not show. Schedule codes are those of the source, read here as Q, the interval in days (D) or hours (H), X, the number of doses. Some schedule codes hold Z or #, which are not explained here. Some entries were tested several times; their values stand side by side, smallest first. Where survival is the endpoint, the PubChem record calls one and a half times the control and up active, and a quarter to a half above the control has no call in these data; cut-offs in other NCI protocols can differ. Marks such as (2×) give the number of equal values in this list. Some T/C values carry the count of animals alive at the toxicity check (mostly the fifth day); where none is given, no animal had died by that day.
# Tested on: BDF1 mice, L1210/MTX-resistant leukemia ip, survival T/C
# Experiment: NCI In Vivo Anticancer Drug Screen. Data for tumor model L1210 Leukemia resistant to Methotrexate; NSC 740 (intraperitoneal) in B6D2F1 (BDF1) mice
# Details: T/C endpoint: mean survival time, higher T/C = longer survival
# Method: The antitumor activity of compounds was measured in mice bearing transplantable tumors. Survival or tumor size were measured and the results are expressed as the measurement made in the treated group (T) divided by the measurement made in the vehicle treated control group (C). The tumor model used in this assay is L1210 Leukemia resistant to Methotrexate; NSC 740 (intraperitoneal) in B6D2F1 (BDF1) mice
# [1] = dose: 200.0 mg/kg/injection, schedule: Q01DX Z (ip), vehicle: carboxymethylcellulose (CMC)
# [2] = dose: 12.5 mg/kg/injection, schedule: Q01DX Z (ip), vehicle: methylcellulose (MC)
# [3] = dose: 25.0 mg/kg/injection, schedule: Q01DX Z (ip), vehicle: methylcellulose (MC)
# [4] = dose: 50.0 mg/kg/injection, schedule: Q01DX Z (ip), vehicle: methylcellulose (MC)
# [5] = dose: 100.0 mg/kg/injection, schedule: Q01DX Z (ip), vehicle: methylcellulose (MC)
# [6] = dose: 20.0 mg/kg/injection, schedule: Q01DX Z (ip), vehicle: saline
compound,measurement,setting,value
CCn1cnc2c(=S)nc[nH]c21,survivor count,"dose: 50.0 mg/kg/injection, schedule: Q01DX Z (ip), vehicle: carboxymethylcellulose (CMC)",6 of 6
same,survivor count,"dose: 62.5 mg/kg/injection, schedule: Q01DX010 (ip), vehicle: saline",6 of 6
same,survivor count,[1],6 of 6
same,survivor count,"dose: 250.0 mg/kg/injection, schedule: Q01DX Z (ip), vehicle: carboxymethylcellulose (CMC)",3 of 6
CCN(CC)CCNc1ccc(C)c2sc3ccccc3c(=O)c12,survivor count,"dose: 6.3 mg/kg/injection, schedule: Q01DX Z (ip), vehicle: methylcellulose (MC)",6 of 6
same,T/C,[2],126 % of control [4 of 6 alive]
same,survivor count,[2],6 of 6
same,T/C,"dose: 20.0 mg/kg/injection, schedule: Q01DX Z (ip), vehicle: carboxymethylcellulose (CMC)",140 % of control
same,survivor count,[3],3 of 6
same,T/C,"dose: 40.0 mg/kg/injection, schedule: Q01DX Z (ip), vehicle: carboxymethylcellulose (CMC)",126 % of control
same,survivor count,[4],1 of 6
same,T/C,"dose: 80.0 mg/kg/injection, schedule: Q01DX Z (ip), vehicle: carboxymethylcellulose (CMC)",130 % of control
same,survivor count,[5],2 of 6
CS(=O)(=O)OCCCl,survivor count,"dose: 25.0 mg/kg/injection, schedule: Q01DX Z (ip), vehicle: saline",1 of 6
same,survivor count,"dose: 100.0 mg/kg/injection, schedule: Q01DX Z (ip), vehicle: saline",4 of 6
same,survivor count,"dose: 200.0 mg/kg/injection, schedule: Q01DX Z (ip), vehicle: saline",0 of 6
N=[N+]=CC(=O)OCC(N)C(=O)O (stereo not given),T/C,"dose: 2.5 mg/kg/injection, schedule: Q01DX Z (ip), vehicle: saline",135 % of control
same,T/C,"dose: 5.0 mg/kg/injection, schedule: Q01DX Z (ip), vehicle: saline",131 % of control (2×)
same,T/C,"dose: 10.0 mg/kg/injection, schedule: Q01DX Z (ip), vehicle: saline",134 % of control
same,T/C,[6],"106, 107, 121 % of control"
same,survivor count,[6],4 of 6
CC(=O)N(C)C,survivor count,"dose: 63.0 mg/kg/injection, schedule: Q01DX Z (ip), vehicle: methylcellulose (MC)",5 of 6
same,survivor count,"dose: 125.0 mg/kg/injection, schedule: Q01DX Z (ip), vehicle: methylcellulose (MC)",6 of 6
same,T/C,"dose: 125.0 mg/kg/injection, schedule: Q01DX Z (ip), vehicle: saline",125 % of control
same,survivor count,"dose: 250.0 mg/kg/injection, schedule: Q01DX Z (ip), vehicle: methylcellulose (MC)",5 of 6 and 6 of 6
same,T/C,"dose: 250.0 mg/kg/injection, schedule: Q01DX Z (ip), vehicle: saline",125 and 130 % of control
same,survivor count,"dose: 500.0 mg/kg/injection, schedule: Q01DX Z (ip), vehicle: methylcellulose (MC)",6 of 6
C[C@@H]1C[C@H]2CC[C@H](O2)[C@H](C)C(=O)O[C@@H](C)C[C@@H]2CC[C@@H](O2)[C@@H](C)C(=O)O[C@H](C)C[C@H]2CC[C@H](O2)[C@H](C)C(=O)O[C@@H](C)C[C@@H]2CC[C@@H](O2)[C@@H](C)C(=O)O1,survivor count,[3],5 of 6
same,survivor count,[4],5 of 6
same,survivor count,[5],4 of 6
same,survivor count,"dose: 200.0 mg/kg/injection, schedule: Q01DX Z (ip), vehicle: methylcellulose (MC)",3 of 6
Cn1c(N)nc2nc[nH]c2c1=S,survivor count,"dose: 75.0 mg/kg/injection, schedule: Q01DX Z (ip), vehicle: carboxymethylcellulose (CMC)",6 of 6
same,survivor count,"dose: 100.0 mg/kg/injection, schedule: Q01DX Z (ip), vehicle: carboxymethylcellulose (CMC)",6 of 6
same,survivor count,"dose: 150.0 mg/kg/injection, schedule: Q01DX Z (ip), vehicle: carboxymethylcellulose (CMC)",3 of 6
same,survivor count,[1],1 of 6
